Measurements: PubChem BioAssay AID2685 (National Center for Advancing Translational Sciences (NCATS), 2010)
The other results are listed elsewhere or left out. The main result of the screen is listed elsewhere. These columns were measured beside it and carry no call. Compounds called inactive in the main read-out are mostly missing here. Words in brackets tell the shape of the fitted curve; partial curves, single points and poor fits give uncertain potencies.

Assay: qHTS Assay for Lipid Storage Modulators in Drosophila S3 Cells;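 as to cell number change: cells counted by Cell Tracker Red CMTPX staining in the red channel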
Details: BODIPY lipid droplet fluorescence, 18-24 h; for cell number change: measured here: cell count max response, cells fed with added oleic acid
Method in brief: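 Laser-scanning cytometry quantifies lipid droplet accumulation (500–530 nm total intensity; droplet/cell object ratio) in oleic acid-fed (400 uM added) Drosophila S3 cells treated with a concentration series. 20 uM Triacsin C defined 100% inhibition.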

[1] = measured here: cell number channel AC50, cells fed with added oleic acid
[2] = measured here: lipid fluorescence (Fed channel) AC50, cells fed with added oleic acid

| SMILES | cell number change | AC50 [1] | AC50 [2] |
| --- | --- | --- | --- |
| Cc1cc(C)c(NC(=O)c2ccccc2C(=O)c2ccccc2)c(C)c1 | 43.1% | 0.651 µM [rising, full curve] | 5.17 µM [rising, full curve] |
| COc1ccc(C(=O)N=c2sc3ccccc3n2C)cc1OC | 79% | 29.1 µM [rising, single point] |  |
| COc1ccc(NC(=O)N2CCN(C(=O)C3CCCO3)CC2)cc1 (stereo not given) | 7.73% |  |  |
| C(=N\Nc1ccccn1)/c1ccc(N2CCOCC2)cc1 | 24.5% |  | 0.164 µM [rising, full curve, poor fit] |
| CCc1ccc(Nc2cc(C)nc3nc(C)nn23)cc1 | 22.2% |  | 6.51 µM [rising, partial curve] |
| Cc1ccc(C)c(N2CC(C(=O)Nc3nccs3)CC2=O)c1 (stereo not given) | 2.56% |  | 0.092 µM [rising, full curve, poor fit] |
| O=C(CNC(=O)c1cccs1)Nc1cccc(S(=O)(=O)N2CCOCC2)c1 | -83.7% | 29.1 µM [falling, single point] | 3.26 µM [falling, partial curve] |
| COc1ccc(N(CC(=O)NCC2CCCO2)S(=O)(=O)c2ccccc2)cc1OC (stereo not given) | 23.9% |  |  |
| CCc1noc(C)c1C(=O)OC(C)C(=O)c1c(C)[nH]c2ccccc12 (stereo not given) | -16.6% |  |  |
| COCCCNC(CC(=O)Nc1ccc(OC)cc1OC)C(=O)O (stereo not given) | 1.34% |  |  |
| COCc1nnc(SCC(=O)NC(C)c2ccccc2)n1-c1ccccc1 (stereo not given) | 33.2% | 3.26 µM [rising, full curve] | 18.4 µM [rising, single point] |
| CCOc1ccc(CCNC(=O)CSc2ncn[nH]2)cc1OCC | 22.2% |  | 16.4 µM [falling, single point] |
| CCCN1CCC(NC(=O)Nc2ccc([N+](=O)[O-])cc2)CC1 | 103% | 29.1 µM [rising, single point] |  |
| CCC1CCCCN1CC(=O)c1c(C)[nH]c2ccccc12 (stereo not given) | 56.9% | 5.8 µM [rising, partial curve] |  |
| O=C1CC(NS(=O)(=O)c2ccc([N+](=O)[O-])cc2)CN1c1cccc(F)c1 (stereo not given) | 34% | 4.11 µM [rising, full curve, poor fit] |  |
| Cc1cccc(N2CCN(CC(O)COc3ccccc3Cl)CC2)c1 (stereo not given) | -33% | 18.4 µM [falling, single point] | 0.0058 µM [falling, full curve, poor fit] |
| O=C(CSc1nnc(-c2ccc3c(c2)OCCO3)o1)NC1CCCCC1 | -66.9% | 5.8 µM [falling, full curve] | 0.0082 µM [falling, full curve, poor fit] |
| CC[C@H](C)[C@H](NC(=O)OCc1ccccc1)C(=O)OCC(=O)Nc1ccc(N2CCOCC2)cc1 | 35.5% | 5.8 µM [rising, full curve] |  |
| CCOC(=O)c1c(C)c2c(n1C)CCC/C2=N\O | 74.3% | 1.46 µM [rising, full curve] | 0.731 µM [rising, full curve] |
| CC(Sc1nnc(Cc2ccccc2)n1C)C(=O)NC1CC1 (stereo not given) | 13.3% |  | 0.0517 µM [rising, full curve] |

Full records from above.
Cc1cccc(N2CCN(CC(O)COc3ccccc3Cl)CC2)c1 (stereo not given) is listed as cell number change: -33%; AC50 [1]: 18.4 µM [falling, single point]; AC50 [2]: 0.0058 µM [falling, full curve, poor fit]
CC[C@H](C)[C@H](NC(=O)OCc1ccccc1)C(=O)OCC(=O)Nc1ccc(N2CCOCC2)cc1 is listed as cell number change: 35.5%; AC50 [1]: 5.8 µM [rising, full curve]
Cc1ccc(C)c(N2CC(C(=O)Nc3nccs3)CC2=O)c1 (stereo not given) is listed as cell number change: 2.56%; AC50 [2]: 0.092 µM [rising, full curve, poor fit]
COCCCNC(CC(=O)Nc1ccc(OC)cc1OC)C(=O)O (stereo not given) is listed as cell number change: 1.34%

Further records follow.

| SMILES | cell number change | AC50 [1] | AC50 [2] |
| --- | --- | --- | --- |
| CC(=O)c1nn(-c2ccc(Br)cc2)cc1C(=O)c1ccccc1 | 13.9% | 1.84 µM [rising, partial curve, poor fit] | 2.59 µM [rising, full curve] |
| Cc1ccccc1CN1CCN(Cc2ccc3cccc(F)c3n2)CC1CCO (stereo not given) | -8.24% |  |  |
| Cc1ccc(C(=O)NC2CCN(S(=O)(=O)c3ccc(F)cc3)CC2)cc1 | 11.4% |  | 29.1 µM [rising, single point] |
| Cc1ccc(C(=O)CSc2nnc3c4ccccc4nc(Cc4ccccc4)n23)cc1 | 23% |  | 2.91 µM [rising, partial curve] |
| O=C(NCCCN1CCN(c2ccccc2F)CC1)C1CCCN(S(=O)(=O)c2cnc[nH]2)C1 (stereo not given) | 31.8% | 20.6 µM [rising, single point] | 1.16 µM [rising, single point] |
| CCOC(=O)c1cc(-c2ccc([N+](=O)[O-])cc2)nc2c1c(=O)[nH]c(=O)n2Cc1ccccc1 | -30.3% | 18.4 µM [falling, single point] |  |
| O=[N+]([O-])c1ccc(/C=N/NC(=S)Nc2ccccc2)o1 | -23.6% |  | 11.6 µM [falling, partial curve] |
| CC(C)c1ccc(/C=C2\CC/C(=C\C=N\N(C)C)C2=O)cc1 | 440% | 29.1 µM [rising, single point] | 29.1 µM [rising, single point] |
| O=C1CCCN1CCCNc1nc2c(S(=O)(=O)c3ccc(Br)cc3)nnn2c2ccccc12 | -22.4% |  | 3.26 µM [falling, full curve] |
| O=C1CC(c2cccc(Cl)c2)C(n2cncn2)C(=O)C1C1NCCc2ccccc21 (stereo not given) | -8.02% |  |  |
| CCC1CCCCN1c1nc(-c2ccncc2)nc2ccccc12 (stereo not given) | 14.9% |  | 5.17 µM [rising, single point] |
| CSc1nc2sc3c(c2c2nnnn12)CCC3 | 3.63% |  | 7.31 µM [rising, partial curve] |
| CN(C)c1ccc(/C=N/n2c(-c3ccccc3Br)n[nH]c2=S)cc1 | 17.3% |  | 29.1 µM [rising, single point] |
| O=C(COC(=O)CCC1CCCC1)Nc1cc(S(=O)(=O)N2CCOCC2)ccc1Cl | -26.1% |  |  |
| COc1cccc(NC(=O)C2CCN(S(C)(=O)=O)CC2)c1 | -3.17% |  | 4.11 µM [falling, full curve] |
| Cc1ccc(C(=O)N2CCN(c3ncccn3)CC2)cc1 | 22.5% |  |  |
| COCC(=O)NNS(=O)(=O)c1ccccc1[N+](=O)[O-] | -13.9% |  | 3.26 µM [falling, partial curve, poor fit] |
| COc1cc2c(cc1OC)CN(Cc1cccs1)CC2 | 29.9% |  |  |
| CCOc1ccc(NC(=O)NCC2CCN(c3ccc(OC)cc3)C2)cc1 (stereo not given) | -1.45% |  | 1.64 µM [falling, partial curve, poor fit] |
| Cc1ccc2oc(-c3ccc(C)c(NC(=S)NC(=O)c4cccs4)c3)nc2c1 | -26.3% |  | 14.6 µM [falling, single point] |

| SMILES | cell number change | AC50 [1] | AC50 [2] |
| --- | --- | --- | --- |
| CCN(CC(=O)Nc1ccc(NC(C)=O)cc1)Cc1c(O)ccc2cc(Br)ccc12 | 14.9% |  |  |
| O=C(COc1ccc(Cl)cc1Cl)N/N=C/c1ccccn1 | -16.5% |  |  |
| CC(=O)Nc1ccc(NC(=O)c2cccc3ccccc23)cc1 | 12.2% |  |  |
| COc1ccc(N/C=C2\CCc3ccccc3C2=O)cc1 | -21.2% |  | 0.00517 µM [falling, full curve, poor fit] |
| CCN(CCO)C(=S)Nc1cc(S(=O)(=O)N(C)C)ccc1C | -58.6% | 0.184 µM [falling, full curve, poor fit] | 0.58 µM [rising, single point] |
| Cn1c(=O)c2cc(S(=O)(=O)NC(C(=O)N3CCCCCC3)c3ccccc3)ccc2n(C)c1=O (stereo not given) | -22.7% |  | 16.4 µM [falling, single point] |
| O=C(NC1CCN(Cc2ccccc2)CC1)c1ccc(S(=O)(=O)NCc2ccco2)cc1 |  | 0.00461 µM [rising, full curve, poor fit] |  |
| COc1ccc([C@H]2CC(=O)C=C(c3ccc(C(=O)O)cc3)C2)cc1OC | -10.3% | 0.00517 µM [falling, full curve, poor fit] | 0.00461 µM [falling, full curve, poor fit] |
| Cc1ccc(N2CCN(CC(O)COc3cccc4ccccc34)CC2)cc1 (stereo not given) | -29.6% | 0.651 µM [falling, full curve, poor fit] | 16.4 µM [falling, single point] |
| O=C(NCCN1CCCCCC1)c1ccc(N2CCCC2=O)cc1 | -10.2% | 1.16 µM [falling, full curve, poor fit] | 1.46 µM [falling, partial curve] |
| COCCCN1CCN(C2Cc3ccccc3Sc3ccc(Cl)cc32)CC1 (stereo not given) | -23.9% | 0.092 µM [rising, full curve, poor fit] |  |
| COc1ccc(CCn2nnnc2C(c2ccccc2)N2CCN(C)CC2)cc1OC (stereo not given) | -15.1% | 3.66 µM [falling, single point] | 4.61 µM [falling, single point] |
| CCC(c1nnnn1CCOC)N1CCN(C(=O)c2ccco2)CC1 (stereo not given) | -3.52% |  | 0.00461 µM [falling, full curve, poor fit] |
| O=C(Nc1ccc(F)c([N+](=O)[O-])c1)c1cccs1 | -18.7% |  | 1.16 µM [falling, full curve] |
| Cc1ccc(-c2csc(NC(=O)CCCc3cccs3)n2)cc1 | 23.8% |  | 16.4 µM [rising, partial curve, poor fit] |
| COc1ccccc1N1CCN(S(=O)(=O)c2ccc(-c3cnc(C4CC4)o3)cc2)CC1 |  |  | 14.6 µM [falling, partial curve, poor fit] |
| Cc1occc1-c1nnc(SCC(=O)N2CCCCC2)n1C | -12.9% |  |  |
| CCOC(=O)Oc1ccc2c(=O)c(Oc3cccc(C)c3)coc2c1 | -19% |  | 1.64 µM [falling, full curve, poor fit] |
| CCOCCCNC(=O)C1(O)c2ccccc2NC(=O)N1c1ccc(C)c(C)c1 (stereo not given) | 30.4% | 1.3 µM [rising, partial curve, poor fit] |  |
| O=C(COC(=O)c1cccnc1)Nc1cccc(Cl)c1 | -21.7% | 1.16 µM [falling, single point] | 1.16 µM [falling, full curve] |
